Reference: PMC9800333, “Determinants of receptor tyrosine phosphatase homophilic adhesion: Structural comparison of PTPRK and PTPRM extracellular domains” (The Journal of Biological Chemistry, 2022)
No constants are given. Whether binding was seen depends on the method and setting.

Assays:
[1] = biological target: full-length PTPRK extracellular domain (human) (UniProt Q15262); experiment: SEC-MALS; pH 6: peak fractions from pH 8 buffer exchanged into 50 mM Mes, pH 6, 250 mM NaCl; Superdex 200 Increase 10/300 GL; protein conjugate analysis for glycans; both purified
[2] = biological target: full-length PTPRK extracellular domain (human) (UniProt Q15262); experiment: SEC-SAXS-MALS; pH 6: S200 Increase 5/150 in 50 mM Mes, pH 6.0, 250 mM NaCl, 3% (v/v) glycerol; PTPRK-ECD 2.3 mg/ml, PTPRM-ECD 7.0 mg/ml injected; both purified

binding [1]: no binding (condition: at pH 6) | binding [2]: no binding (condition: at pH 6)
B1: full-length PTPRK extracellular domain (domain or fragment, human, UniProt Q15262-3 28-752, looked up)
chain: QGQFSAGGCTFDDGPGACDYHQDLYDDFEWVHVSAQEPHYLPPEMPQGSYMIVDSSDHDPGEKARLQLPTMKENDTHCIDFSYLLYSQKGLNPGTLNILVRVNKGPLANPIWNVTGFTGRDWLRAELAVSTFWPNEYQVIFEAEVSGGRSGYIAIDDIQVLSYPCDKSPHFLRLGDVEVNAGQNATFQCIATGRDAVHNKLWLQRRNGEDIPVAQTKNINHRRFAASFRLQEVTKTDQDLYRCVTQSERGSGVSNFAQLIVREPPRPIAPPQLLGVGPTYLLIQLNANSIIGDGPIILKEVEYRMTSGSWTETHAVNAPTYKLWHLDPDTEYEIRVLLTRPGEGGTGLPGPPLITRTKCAEPMRTPKTLKIAEIQARRIAVDWESLGYNITRCHTFNVTICYHYFRGHNESKADCLDMDPKAPQHVVNHLPPYTNVSLKMILTNPEGRKESEETIIQTDEDVPGPVPVKSLQGTSFENKIFLNWKEPLDPNGIITQYEISYSSIRSFDPAVPVAGPPQTVSNLWNSTHHVFMHLHPGTTYQFFIRASTVKGFGPATAINVTTNISAPTLPDYEGVDASLNETATTITVLLRPAQAKGAPISAYQIVVEELHPHRTKREAGAMECYQVPVTYQNAMSGGAPYYFAAELPPGNLPEPAPFTVGDNRTYQGFWNPPLAPRKGYNIYFQAMSSVEKETKTQCVRIATKAAATEEPEVIPDPAKQTDRVV
modifications: native N-linked glycans (no deglycosylation)
notes: human PTPRK, full extracellular domain (MAM, Ig, FN1-4), residues 28-752; numbers count on: UniProt Q15262-3; Cloned into pHLSec (AgeI/KpnI) in frame with the vector's N-terminal secretion signal; The C-terminal His6 tag was included in the SAXS models; also called PTPRK-ECD; PTPRK full ECD; not shown: Lys-His6, C-terminal, kept
